Laboratory results published in PMC10044245, “Comparative Evaluation of Existing and Rationally Designed Novel Antimicrobial Peptides for Treatment of Skin and Soft Tissue Infections” (Antibiotics, 2023).
Where a SMILES comes first, the peptide text is derived from it.

Assay: Langmuir-Blodgett compression isotherms
Details: π–A isotherm, 30 ± 1 °C, peptide mixed with E. coli model membranes

CC[C@H](C)[C@H](NC(=O)CNC(=O)[C@H](CCCCN)NC(=O)[C@H](Cc1ccc(O)cc1)NC(=O)[C@H](CS)NC(=O)[C@@H](NC(=O)[C@H](CCCCN)NC(=O)[C@H](Cc1ccccc1)NC(=O)[C@H](CS)NC(=O)[C@H](Cc1c[nH]c2ccccc12)NC(=O)[C@@H](N)CCCNC(=N)N)C(C)C)C(=O)N[C@@H](CS)C(=O)N[C@@H](Cc1ccc(O)cc1)C(=O)N[C@@H](CCCCN)C(=O)N[C@@H](CCCCN)C(=O)N[C@@H](CS)C(=O)N[C@@H](CCCCN)C(=O)O [RP556] (H-RWCFKVCYKGICYKKCK-OH; N-terminus and C-terminus assumed)
π Collapse: 43.6 mN/m
